PubChem BioAssay AID686937 | Drosophila RNAi Screening Center | 2013

Purpose: 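Knock-downs that reduce output of a secreted reporter enzyme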 (primary screen)
Cells: Drosophila S2 cells expressing secreted horseradish peroxidase
Reagent: long dsRNA against Drosophila genes
Time to read-out: about 5.5 days (5 days dsRNA, then 12 h reporter induction)
Challenge: reporter expression induced after 5 days of dsRNA, read 12 h later; inducer not stated
Detection: 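Chemiluminescent measurement of peroxidase in the medium 12 h after reporter induction, following 5 days of dsRNA, given as a z-score per plate; higher means more secretion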
Scale: z-score: higher = more reporter secreted into medium
The deposit covers about 23,000 reagents; this is an unselected part of those with a known target gene and a result. 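Reduced-secretion tags in replicate 1 do not always agree with the z-scores; no criterion for assigning the tags was given.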 Reagents against one gene are numbered here. Names joined by + are all predicted targets of the reagent. Further read-outs or replicates are left out here. The record does not give: the amount of reagent.

{"predicted target": "obst-F", "reagent": 1, "z-score, replicate 1": 0.36}
{"predicted target": "Reph", "reagent": 1, "z-score, replicate 1": 0.18}
{"predicted target": "Reph", "reagent": 2, "z-score, replicate 1": 0.51}
{"predicted target": "CG12880", "reagent": 1, "z-score, replicate 1": 0.33}
{"predicted target": "CG15814", "reagent": 1, "z-score, replicate 1": 0.14}
{"predicted target": "CG6867", "reagent": 1, "z-score, replicate 1": 0.16}
{"predicted target": "Polr2B", "reagent": 1, "z-score, replicate 1": -4.66, "phenotype, replicate 1": "reduced secretion"}
{"predicted target": "CR30374", "reagent": 1, "z-score, replicate 1": -0.42}
{"predicted target": "WASp", "reagent": 1, "z-score, replicate 1": 0.48}
{"predicted target": "ccb", "reagent": 1, "z-score, replicate 1": 0.22}
{"predicted target": "l(1)10Bb", "reagent": 1, "z-score, replicate 1": -2.08, "phenotype, replicate 1": "reduced secretion"}
{"predicted target": "otk", "reagent": 1, "z-score, replicate 1": 0.37}
{"predicted target": "His2B:CG33870 + His2B:CG33868 + His2B:CG33882 + 21 more", "reagent": 1, "z-score, replicate 1": -3.52, "phenotype, replicate 1": "reduced secretion"}
{"predicted target": "lncRNA:CR31044", "reagent": 1, "z-score, replicate 1": -0.31}
{"predicted target": "CG2186", "reagent": 1, "z-score, replicate 1": 0.27}
{"predicted target": "crim", "reagent": 1, "z-score, replicate 1": 0.15}
{"predicted target": "Gp150", "reagent": 1, "z-score, replicate 1": 0.08}
{"predicted target": "CG2006", "reagent": 1, "z-score, replicate 1": 0.32}
{"predicted target": "lectin-28C", "reagent": 1, "z-score, replicate 1": 0.37}
{"predicted target": "CG13445", "reagent": 1, "z-score, replicate 1": -0.21}
{"predicted target": "CG6325", "reagent": 1, "z-score, replicate 1": 0.31}
{"predicted target": "CG43693", "reagent": 1, "z-score, replicate 1": 0.02}
{"predicted target": "CG43693", "reagent": 2, "z-score, replicate 1": 0.09}
{"predicted target": "CG13474", "reagent": 1, "z-score, replicate 1": -0.72}
{"predicted target": "bsh", "reagent": 1, "z-score, replicate 1": 0.78}
{"predicted target": "CG33922", "reagent": 1, "z-score, replicate 1": 0.65}
{"predicted target": "hd", "reagent": 1, "z-score, replicate 1": 0.43}
{"predicted target": "Glt", "reagent": 1, "z-score, replicate 1": 0.24}
{"predicted target": "Jon66Cii", "reagent": 1, "z-score, replicate 1": 0.27}
{"predicted target": "Sk2", "reagent": 1, "z-score, replicate 1": 0.19}
{"predicted target": "CG14655", "reagent": 1, "z-score, replicate 1": 0.95}
{"predicted target": "CG3823", "reagent": 1, "z-score, replicate 1": 0.39}
{"predicted target": "CG4757", "reagent": 1, "z-score, replicate 1": 0.39}
{"predicted target": "heix", "reagent": 1, "z-score, replicate 1": 0.1}
{"predicted target": "CG9304", "reagent": 1, "z-score, replicate 1": 0.24}
{"predicted target": "CG12123", "reagent": 1, "z-score, replicate 1": 0.49}
{"predicted target": "CR43999 (retired record)", "reagent": 1, "z-score, replicate 1": 0.33}
{"predicted target": "fd19B", "reagent": 1, "z-score, replicate 1": -0.16, "phenotype, replicate 1": "reduced secretion"}
{"predicted target": "CG30460", "reagent": 1, "z-score, replicate 1": 0.63}
{"predicted target": "CG30460", "reagent": 2, "z-score, replicate 1": -1.72, "phenotype, replicate 1": "reduced secretion"}
